# The other results are listed elsewhere or left out. Most values lie within the scatter of the assay; repeated measurements hardly agree.
# System: MDA-MB-468
# Assay: phospho-S6 immunofluorescence (DAPI-normalised), per-plate z-score; higher = higher phospho-S6 signal (less pathway suppression)
# Conditions: 24 h
# Protocol: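 GPCR-targeted compound library (MedChemExpress HY-L006) tested on MDA-MB-468 PTEN-null TNBC cells in 384-well plates at 0.1, 1 or 10 uM, combined with vehicle, GDC0941 450 nM or lapatinib 1 uM, for 24 h. Phospho-S6 (S240/244) immunofluorescence normalised to DAPI and expressed as a per-plate z-score; values are the mean of biological triplicates.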
# [1] = compound 0.1 µM, co-treatment: GDC0941 450 nM
# [2] = compound 0.1 µM, co-treatment: lapatinib 1 uM
# [3] = compound 0.1 µM, co-treatment: vehicle
# [4] = compound 1 µM, co-treatment: GDC0941 450 nM
# [5] = compound 1 µM, co-treatment: lapatinib 1 uM
# [6] = compound 1 µM, co-treatment: vehicle
# [7] = compound 10 µM, co-treatment: GDC0941 450 nM
# [8] = compound 10 µM, co-treatment: lapatinib 1 uM
# [9] = compound 10 µM, co-treatment: vehicle
smiles,measurement,setting,value
C[N+]1(C)[C@@H]2C[C@@H](OC(=O)[C@H](CO)c3ccccc3)C[C@H]1[C@@H]1O[C@@H]12 [Methscopolamine (bromide)],phospho-S6 immunofluorescence (z-score),[1],0.15
same,phospho-S6 immunofluorescence (z-score),[2],0.2
same,phospho-S6 immunofluorescence (z-score),[3],1.67
same,phospho-S6 immunofluorescence (z-score),[4],1.29
same,phospho-S6 immunofluorescence (z-score),[5],0.61
same,phospho-S6 immunofluorescence (z-score),[6],0.46
same,phospho-S6 immunofluorescence (z-score),[7],0.05
same,phospho-S6 immunofluorescence (z-score),[8],0.43
same,phospho-S6 immunofluorescence (z-score),[9],0.6
CN1CCC(c2c[nH]c3ccc(O)cc23)CC1,phospho-S6 immunofluorescence (z-score),[1],-0.33
same,phospho-S6 immunofluorescence (z-score),[2],0.66
same,phospho-S6 immunofluorescence (z-score),[3],-0.63
same,phospho-S6 immunofluorescence (z-score),[4],0.25
same,phospho-S6 immunofluorescence (z-score),[5],0.72
same,phospho-S6 immunofluorescence (z-score),[6],-0.52
same,phospho-S6 immunofluorescence (z-score),[7],0.22
same,phospho-S6 immunofluorescence (z-score),[8],0.55
same,phospho-S6 immunofluorescence (z-score),[9],0.06
CCN(CC)C(=O)c1ccc(C2=CC3(CCNCC3)Oc3cccc(O)c32)cc1,phospho-S6 immunofluorescence (z-score),[1],0.01
same,phospho-S6 immunofluorescence (z-score),[2],-0.48
same,phospho-S6 immunofluorescence (z-score),[3],-0.63
same,phospho-S6 immunofluorescence (z-score),[4],0.19
same,phospho-S6 immunofluorescence (z-score),[5],-1.39
same,phospho-S6 immunofluorescence (z-score),[6],-1.39
same,phospho-S6 immunofluorescence (z-score),[7],0.32
same,phospho-S6 immunofluorescence (z-score),[8],-0.78
same,phospho-S6 immunofluorescence (z-score),[9],0.88
O=C(O[C@H]1CN2CCC1CC2)N(Cc1cc(F)c(F)c(F)c1)c1cccc(F)c1 [Tarafenacin (D-tartrate)],phospho-S6 immunofluorescence (z-score),[1],0.57
same,phospho-S6 immunofluorescence (z-score),[2],0.42
same,phospho-S6 immunofluorescence (z-score),[3],0.79
same,phospho-S6 immunofluorescence (z-score),[4],1.19
same,phospho-S6 immunofluorescence (z-score),[5],0.52
same,phospho-S6 immunofluorescence (z-score),[6],0.89
same,phospho-S6 immunofluorescence (z-score),[7],0.34
same,phospho-S6 immunofluorescence (z-score),[8],-1.58
same,phospho-S6 immunofluorescence (z-score),[9],1.05
CN1CCC2=C(C1)c1ccccc1Cc1ccccc12 [Setiptiline (maleate)],phospho-S6 immunofluorescence (z-score),[1],-0.5
same,phospho-S6 immunofluorescence (z-score),[2],-0.43
same,phospho-S6 immunofluorescence (z-score),[3],-1.65
same,phospho-S6 immunofluorescence (z-score),[4],-0.11
same,phospho-S6 immunofluorescence (z-score),[5],-1.75
same,phospho-S6 immunofluorescence (z-score),[6],-0.46
same,phospho-S6 immunofluorescence (z-score),[7],-0.68
same,phospho-S6 immunofluorescence (z-score),[8],-1.28
same,phospho-S6 immunofluorescence (z-score),[9],-1.11

# Laid out differently: results already given
smiles | measurement | setting | value
CCN(CC)C(=O)c1ccc(C2=CC3(CCNCC3)Oc3cccc(O)c32)cc1 | phospho-S6 immunofluorescence (z-score) | [5] | -1.39
same | phospho-S6 immunofluorescence (z-score) | [6] | -1.39
same | phospho-S6 immunofluorescence (z-score) | [7] | 0.32
same | phospho-S6 immunofluorescence (z-score) | [8] | -0.78
same | phospho-S6 immunofluorescence (z-score) | [9] | 0.88
O=C(O[C@H]1CN2CCC1CC2)N(Cc1cc(F)c(F)c(F)c1)c1cccc(F)c1 [Tarafenacin (D-tartrate)] | phospho-S6 immunofluorescence (z-score) | [1] | 0.57
same | phospho-S6 immunofluorescence (z-score) | [2] | 0.42
same | phospho-S6 immunofluorescence (z-score) | [3] | 0.79
same | phospho-S6 immunofluorescence (z-score) | [4] | 1.19
